Assay: general procedure: Fmoc solid-phase peptide synthesis; Rink amide MBHA resin (with Nle) (0.40 mmol/g); HCTU/NMM
Details: whole synthesis

In the case of SATP-AN2Cys-NH2, the “final HPLC purity” value (Waters Acquity HPLC, BEH phenyl column, detection at 229 nm, scale of the general procedure 100-μmol) is reported as “purity>95%” and the isolated yield (scale 100 umol) is reported as 26%.

Reference: patent US9161988B2 (Angiochem Inc., priority 2009, dated 2015)
